Data source: PubChem BioAssay AID1117269 (University of Michigan, 2014)

Test: 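Kinases whose silencing alters a TGF-beta responsive luciferase reporter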 (primary screen)
System: human A549 lung cancer and 1833 breast cancer (MDA-MB-231-derived) cell lines carrying a stable BTR luciferase reporter
Knock-down reagent: siRNA pool against human genes
Timing: 72 h after transfection, then 1 h TGF-beta before the read
Conditions: TGF-beta 10 ng/mL added one hour before luciferin and read-out
Detection: 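BTR reporter bioluminescence as fold change relative to non-targeting siRNA, averaging triplicates per line; knockdown for 72 h, then TGF-beta at 10 ng/mL 1 h prior to reading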
Scale: fold over scrambled siRNA, A549 and fold over scrambled siRNA, 1833: higher = more reporter light, weaker TGF-beta receptor signalling
Active means: 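Hit in either line counts as active; per-line hits lie above an upper limit from quartiles of averaged log fold values, in plate and screen-wide analyses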
Meaning of the calls: active = hit in at least one line; inactive = hit in neither line
Here is an unselected part of 714 reagents tested. 49 of them (6.9%) count as active. 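Active means a hit in at least one line; per-line hit columns show which; some siRNA pools appear more than once.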 A reagent listed more than once was tested more than once; the source does not tell the runs apart. Not given: the amount of reagent.

Target gene | fold over scrambled siRNA, A549 | fold over scrambled siRNA, 1833 | hit in A549 | hit in 1833 | call
PDXK | 1.67 | 5.73 | not a hit in A549 | not a hit in 1833 | inactive
CRKL | 5.71 | 6.1 | hit in A549 | not a hit in 1833 | active
ROR2 | 2.22 | 4.8 | not a hit in A549 | not a hit in 1833 | inactive
CDKL5 | 4.05 | 7.29 | not a hit in A549 | not a hit in 1833 | inactive
TGFBR1 | 1.12 | 5.2 | not a hit in A549 | not a hit in 1833 | inactive
PFKFB2 | 5.66 | 5.52 | hit in A549 | not a hit in 1833 | active
MAP4K3 | 0.905 | 1.57 | not a hit in A549 | not a hit in 1833 | inactive
ROCK1 | 3.67 | 6.42 | not a hit in A549 | not a hit in 1833 | inactive
PANK3 | 1.31 | 4.68 | not a hit in A549 | not a hit in 1833 | inactive
AAK1 | 0.654 | 1.67 | not a hit in A549 | not a hit in 1833 | inactive
CDKL4 | 3.05 | 2.11 | not a hit in A549 | not a hit in 1833 | inactive
AGK | 2.71 | 4.93 | not a hit in A549 | not a hit in 1833 | inactive
SPHK1 | 0.743 | 1.94 | not a hit in A549 | not a hit in 1833 | inactive
PDK3 | 1.44 | 2.27 | not a hit in A549 | not a hit in 1833 | inactive
CDKL1 | 0.905 | 0.849 | not a hit in A549 | not a hit in 1833 | inactive
MAST2 | 1.08 | 1.21 | not a hit in A549 | not a hit in 1833 | inactive
DAPK3 | 1.89 | 3.1 | not a hit in A549 | not a hit in 1833 | inactive
DTYMK | 1.27 | 2.98 | not a hit in A549 | not a hit in 1833 | inactive
PKN3 | 3.76 | 6.6 | not a hit in A549 | not a hit in 1833 | inactive
PANK2 | 0.939 | 1.79 | not a hit in A549 | not a hit in 1833 | inactive
MAP3K21 | 1.43 | 1.47 | not a hit in A549 | not a hit in 1833 | inactive
GUCY2D | 0.913 | 1.73 | not a hit in A549 | not a hit in 1833 | inactive
RNASEL | 3.57 | 5.91 | not a hit in A549 | not a hit in 1833 | inactive
MAP3K10 | 3.86 | 5.85 | not a hit in A549 | not a hit in 1833 | inactive
STK17B | 3.2 | 3.67 | not a hit in A549 | not a hit in 1833 | inactive
BMPR1A | 3.85 | 4.07 | not a hit in A549 | not a hit in 1833 | inactive
LMTK3 | 4.41 | 0.778 | not a hit in A549 | not a hit in 1833 | inactive
SIK3 | 2.45 | 1.29 | not a hit in A549 | not a hit in 1833 | inactive
PRKACA | 2.16 | 2.88 | not a hit in A549 | not a hit in 1833 | inactive
BUB1B | 2.89 | 2.6 | not a hit in A549 | not a hit in 1833 | inactive
MAST1 | 1.3 | 4.11 | not a hit in A549 | not a hit in 1833 | inactive
MINK1 | 3.52 | 6.13 | not a hit in A549 | not a hit in 1833 | inactive
HSPB8 | 5.68 | 3.9 | hit in A549 | not a hit in 1833 | active
PIK3C2G | 2.68 | 1.67 | not a hit in A549 | not a hit in 1833 | inactive
WEE1 | 0.756 | 2.15 | not a hit in A549 | not a hit in 1833 | inactive
BRSK1 | 3.23 | 2.93 | not a hit in A549 | not a hit in 1833 | inactive
BRSK1 | 4.05 | 2.7 | not a hit in A549 | not a hit in 1833 | inactive
SBK1 | 1.19 | 6.34 | not a hit in A549 | not a hit in 1833 | inactive
INSRR | 1.69 | 2.7 | not a hit in A549 | not a hit in 1833 | inactive
